## Primary screen of a compound library

Chains of the proteins cited; added tags and fusions are not shown. Residues count along the entry.
UniProt Q4DA54, 1-478: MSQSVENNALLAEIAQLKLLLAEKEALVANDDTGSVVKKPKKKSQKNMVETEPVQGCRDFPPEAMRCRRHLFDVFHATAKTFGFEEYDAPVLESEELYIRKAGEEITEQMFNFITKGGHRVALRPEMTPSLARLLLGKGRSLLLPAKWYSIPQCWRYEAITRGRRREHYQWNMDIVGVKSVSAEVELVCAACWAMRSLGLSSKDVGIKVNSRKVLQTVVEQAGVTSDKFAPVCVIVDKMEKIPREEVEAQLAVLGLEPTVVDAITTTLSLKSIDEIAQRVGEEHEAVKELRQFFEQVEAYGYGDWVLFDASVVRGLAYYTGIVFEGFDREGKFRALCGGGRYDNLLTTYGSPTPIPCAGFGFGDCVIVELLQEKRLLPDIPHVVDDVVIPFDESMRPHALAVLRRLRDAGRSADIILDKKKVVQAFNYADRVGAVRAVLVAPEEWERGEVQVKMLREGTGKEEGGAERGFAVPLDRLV

Results are given as percent effect.
The controls that fix the scale are not given in the record; negative values are as filed.
This is an unselected part of the compounds tested.

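Histidine-tRNA ligase, Trypanosoma cruzi CL Brener (UniProt Q4DA54). Enzyme assay of histidyl-tRNA synthetase; the read-out is not stated. Compounds at 30 µM. Higher reads as stronger inhibition (inferred: compounds with an IC50 in retests scored well above the rest). About 69,000 compounds were tested under these conditions; 0.045% (about 31) showed 50% or more at least once.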

Compound	percent effect
CS(=O)(=O)c1cn[nH]c1C1CCCN(C(=O)Cn2cccn2)C1 (configuration not stated)	-0.7605%
CN(C)CCCNCCC(Cc1ccccc1)C1CCOC(C)(C)C1 (configuration not stated)	7.292%
CC(C)NC(=O)CN(C)CC(=O)/N=c1/cc[nH]n1C(C)C1CC1 (configuration not stated)	9.524%
c1nc2c(c(NC3CCc4ncnn4C3)n1)CCC2 (configuration not stated)	6.897%
O=S(=O)(c1ccc(F)cc1)N1CCN(CCCn2ccnc2)CC1	5.814%
COc1ccc(OCC(C)NS(C)(=O)=O)cc1 (configuration not stated)	8.889%
CC(C)(N)C(=O)N1CCCC1c1cncc(Oc2ccccc2)n1 (configuration not stated)	5.556%
Cc1nccc(NCc2cncc3c2CCN(CC2CCOC2)C3)n1 (configuration not stated)	11.64%
CN(C)C(=O)c1ccc(C2CCCNC2)nc1 (configuration not stated)	2.281%
CCn1ncc2c1CN(C(=O)c1cc(C)oc1C)CC2COC (configuration not stated)	6.952%
O=C1CCc2cc(NC(=O)C3CCCN3c3nccs3)ccc2N1 (configuration not stated)	3.226%
CCCn1ncnc1C(C)NC(=O)C1CCN(C(=O)C2CC2)CC1 (configuration not stated)	5.435%
CN(C)C(=O)[C@@H]1CC[C@@H]2[C@@H](CCN2Cc2nccs2)O1	0.4808%
CCc1cnc(N2C[C@H]3CCCC(N(C)Cc4ccccn4)[C@H]3C2)nc1 (some centres not stated)	2.062%
COc1ccc(OC)c(C2CCN(c3ccc4cc[nH]c4n3)C2)c1 (configuration not stated)	30.17%
c1cnn(CCN2CCOC(Cn3cncn3)C2)c1 (configuration not stated)	5.263%
CCOC(=O)N1CCN(C(=O)c2cc(OCC)c3ccoc3c2)CC1	-4.018%
Cn1cccc1C(=O)N1C[C@@H]2C[C@@H](c3nnc(C4CC4)o3)O[C@@H]2C1	4.233%
Cc1ccc(CN2CCCn3c(nc(Cn4ccnc4)cc3=O)C2)o1	0%
CCC(CC)(CNC(=O)c1cccn1Cc1cccnc1)N(C)C	3.911%
CCN(Cc1nc2c(cnn2C)c(=O)[nH]1)c1ccc(F)cc1	5.634%
c1ccc(CCN2CCOC(CNc3cccnn3)C2)nc1 (configuration not stated)	7.429%
N#CC1(NC(=O)c2nccc3ccccc23)CCC1	2.941%
Cc1ccc(N2CCCC(NCc3ccc4c(c3)CCO4)C2)nn1 (configuration not stated)	4.942%
CN1CCN(C2CCN(CCCOc3ccc(F)cc3)CC2)C1=O	-1.149%
Cc1cc(C)n(CC2CN(CC(=O)NC3(C#N)CCCC3)CCO2)n1 (configuration not stated)	4.598%
CN(Cc1cnccn1)C(=O)c1ccc(CSc2nnc[nH]2)o1	-13.53%
CN(C)C(=O)C1CSCN1C(=O)CCc1ccco1 (configuration not stated)	14.92%
O=c1cc(N2CCCC2)cnn1Cc1noc(C2CCCO2)n1 (configuration not stated)	4.242%
CC(=O)N[C@H]1CCO[C@@H](c2cccc(NC(=O)Cc3ccccc3)c2)C1	1.13%
NC(=O)c1cnn2c1NCC(CNCC1(c3ccccc3)CCC1)C2 (configuration not stated)	17.82%
CCc1nc(CN(C)C(=O)c2cc(NC(C)=O)ccc2Cl)no1	6.329%
CN(C)C1CC2(CCN(C(=O)C3(C#N)CC3)CC2)c2ccccc21 (configuration not stated)	2.062%
COCC(NC(=O)c1cnn(C)c1)c1cccc(C(F)(F)F)c1 (configuration not stated)	4.959%
O=S1(=O)COCCN1Cc1ccc(F)cc1Cl	0.5025%
COCCN(CC(N)=O)CC1CCCN(C2Cc3ccccc3C2)C1 (configuration not stated)	4.762%
CC(NC(=O)c1ccoc1)C(=O)N(C)Cc1cccc(C(F)(F)F)c1 (configuration not stated)	8.374%
Cc1c(Br)cnn1CC(=O)Nc1ccon1	3.125%
Cc1ncncc1-c1ccnc(N)n1	2.26%
Cc1occc1C(=O)N1C[C@@H]2CN(S(C)(=O)=O)CCO[C@@H]2C1	5.376%
CN(C)c1cc(C(=O)N2CCCCC2Cn2cccn2)ccn1 (configuration not stated)	4.373%
OCCN1CCOC2(CCCN(c3ncccn3)C2)C1 (configuration not stated)	4.598%
O=C(NCc1cccc(N2CCCCC2=O)c1)[C@@H](O)c1ccccc1	-4.202%
O=C(c1cccnc1)N1C[C@@H]2OCC(=O)N(Cc3cccnc3)[C@@H]2C1	8.696%
Cc1ccc(S(=O)(=O)N2C[C@H]3C[C@H](NC(=O)c4cscn4)[C@H]3C2)cc1	0.7491%
Cc1nc(CC(=O)NCCN2CCC(c3ccccc3C)C2)cs1 (configuration not stated)	10.24%
Cc1cc(CN(C)C(=O)CN2CC3(CCNCC3)OC2=O)n(C)n1	10.39%
O=C(NC1CCC1)[C@@H]1CCO[C@@H]2CCN(CCc3ccccc3)C[C@H]21	2.674%
CCc1noc(CN2CCN(C(=O)OC(C)(C)C)C(C)C2)n1 (configuration not stated)	6.077%
CNc1ncc(C(=O)N[C@H]2CN(CCCSC)C[C@@H]2C2CC2)cn1	5.579%
O=C(c1ccco1)N(CC(F)(F)F)C1CCCOC1 (configuration not stated)	0%
CC(C)CN1CC(c2nc(-c3cccc(F)c3)c[nH]2)CC1=O (configuration not stated)	2.717%
Cc1ccc(C(=O)NCC2(O)CCOCC2)cc1Br	1.667%
CS(=O)(=O)N1CCC2(CC1)c1ccccc1[C@@H](N1CCSCC1)[C@@H]2O	7.303%
O=C(Cc1ccon1)N1CCN(c2ccc(F)cc2Cl)CC1	10%
CC(C)Cc1noc(CN2CCN(C(=O)c3cccc(F)c3)CC2)n1	3.306%
Cn1cc(NS(=O)(=O)c2ccc(F)c(F)c2)ccc1=O	10.53%
CCCNC(=O)CNc1ccc2c(c1)N(C(=O)OC(C)(C)C)CCC2	6.548%
O=C1NCC2=C1C(c1ccc(O)cc1)Nc1ccccc1N2 (configuration not stated)	5.6%
CC(C)CN1CC(C(=O)NCCc2ccc(OC(F)F)cc2)CC1=O (configuration not stated)	-3.448%
CC(C)C(=O)N1CCN(C(=O)N(C)C)CC2(CC(=O)N(C)C2)C1 (configuration not stated)	-1.22%
CNC(=O)[C@@H]1C[C@H]2CN(Cc3nccs3)C[C@H]2N1C	8.271%
Cc1cnc(N2CCCC(c3ccccc3)C2)nc1-c1ncnn1C (configuration not stated)	6.818%
CNC(=O)[C@H]1C[C@H]2OCC[C@H]2N(Cc2ccc(C)o2)C1	4.348%
Cc1ccc(C)c(C(=O)N2CCOC(CCN(C)C)C2)c1 (configuration not stated)	1.026%
Cc1cnn(CCNCC(O)COc2ccc(C#N)cc2)c1 (configuration not stated)	2.256%
CCCN1CCN(Cc2cn(CCC(N)=O)c3ccccc23)CC1	7.027%
COc1ccc(Cc2c(O)nc(SC)n(-c3ccccc3)c2=O)cc1	1.657%
COC(=O)N1CCc2ccc(NC(=O)c3cn(C)nn3)cc2C1	1.087%
O=C(NCc1ccccc1CN1CCCC1=O)Nc1nncs1	13.79%
Cc1cc(CN2CC[C@H]3[C@H]2CCN3S(C)(=O)=O)oc1C	6.796%
c1cc(CNCC2CNc3ccnn3C2)cc(OC2CCCC2)n1 (configuration not stated)	10.03%
CCc1ncc2c(n1)CN(Cc1nnc(C)o1)CC2	3.306%
CC(=O)c1c(C)nn(CC(=O)Nc2ccc(F)cc2)c1C	-3.093%
Cc1nc(CN2CCCn3cnc(COC(C)C)c3C2)cs1	9.852%
CCCS(=O)(=O)N1CC[C@H]2O[C@H](c3nnc(C)o3)CC[C@H]21	3.941%
O=C1CC(c2ccncc2)C2(CCN(Cc3nccs3)CC2)N1 (configuration not stated)	2.479%
c1ccc(-c2nc(CN3CCCC3Cn3cncn3)no2)cc1 (configuration not stated)	11.83%
CCc1nc(CN(C)CC2CCN(CC(C)O)CC2)no1 (configuration not stated)	2.5%
CCOc1cc(F)ccc1NC1CCN(CC(F)(F)F)C1=O (configuration not stated)	10.5%
O=C(O)[C@]12CCCN(Cc3ccccn3)[C@@H]1CCN(c1cnccn1)C2	6.704%

For reference, 9 entries once more:

{"compound": "CCCNC(=O)CNc1ccc2c(c1)N(C(=O)OC(C)(C)C)CCC2", "percent effect": 6.548}
{"compound": "O=S(=O)(c1ccc(F)cc1)N1CCN(CCCn2ccnc2)CC1", "percent effect": 5.814}
{"compound": "c1ccc(-c2nc(CN3CCCC3Cn3cncn3)no2)cc1", "stereo": "configuration not stated", "percent effect": 11.83}
{"compound": "NC(=O)c1cnn2c1NCC(CNCC1(c3ccccc3)CCC1)C2", "stereo": "configuration not stated", "percent effect": 17.82}
{"compound": "COCC(NC(=O)c1cnn(C)c1)c1cccc(C(F)(F)F)c1", "stereo": "configuration not stated", "percent effect": 4.959}
{"compound": "c1cc(CNCC2CNc3ccnn3C2)cc(OC2CCCC2)n1", "stereo": "configuration not stated", "percent effect": 10.03}
{"compound": "CCN(Cc1nc2c(cnn2C)c(=O)[nH]1)c1ccc(F)cc1", "percent effect": 5.634}
{"compound": "CCCN1CCN(Cc2cn(CCC(N)=O)c3ccccc23)CC1", "percent effect": 7.027}
{"compound": "CNC(=O)[C@@H]1C[C@H]2CN(Cc3nccs3)C[C@H]2N1C", "percent effect": 8.271}

Measurements from “University of Dundee, Small-Polar-MMV Screening Library” (2021), ChEMBL document CHEMBL3988442.